Test: general procedure: peptide synthesis; EDC/NHS (activation of the peptide carboxyl group for conjugation)
Conditions: for conjugation yield: conjugation step; for step yield: late stage modification step

Substance | conjugation yield [%] | conjugation yield (run 1) [%] | step yield (run 1) [%] | step yield (run 2) [%]
AcCPFGFLGIAL | 38 |  |  | 
AcCPIKGAIWL |  | 84 | 76 | 82

— US20250127799A1 (priority 2023, published 2025)
